Publication PMC3380923, “Structure Analysis of Entamoeba histolytica DNMT2 (EhMeth)” (PLoS ONE, 2012)
The comparison behind a weaker result is the experiment's own reference, which may not be listed here. Protein sequences can lack the tags named with them.

Target: T1, EhMeth (DNMT2) (Entamoeba histolytica) (UniProt Q6Q386)
T1 sequence (looked up): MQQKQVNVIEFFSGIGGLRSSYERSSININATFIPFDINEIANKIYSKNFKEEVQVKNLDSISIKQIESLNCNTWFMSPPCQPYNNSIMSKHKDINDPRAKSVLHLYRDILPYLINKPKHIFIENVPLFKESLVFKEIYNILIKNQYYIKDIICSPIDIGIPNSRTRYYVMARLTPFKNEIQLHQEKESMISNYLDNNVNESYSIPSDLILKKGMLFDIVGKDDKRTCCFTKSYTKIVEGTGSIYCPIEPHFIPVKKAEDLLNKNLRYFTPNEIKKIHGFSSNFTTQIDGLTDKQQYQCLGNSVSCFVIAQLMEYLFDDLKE
Assay: EMSA
Conditions: 10 mM Mg2+, 2-20 uM EhMeth, 50 mM HEPES pH 8.0, 50 mM KCl, 10 mM MgCl2, 1 mM EDTA, 0.5% (w/v) glycerol, 0.1 mg/ml BSA, 1 mM DTT, 25 min at room temperature, 1% agarose gel, 1x TAE, on ice, recombinant protein, residues 1-322, label: none (GelRed stain)

Sequence | binding result (2 uM RNA, free band fades, no defined shifted band) | binding result (2 uM DNA, slight shift and smearing, not completely shifted)
CCCGCCUGUCACGCGGG [tRNAAsp anticodon stem-loop (17 nt)] | binds more weakly | 
GATAGCGCTATC / TGATAGCGCTATC [M.HhaI co-crystal DNA duplex (as in PDB 1MHT)] |  | binds more weakly
